The source of these data is publication PMC3579733.

The chains behind the UniProt entries cited, without tags or fusion partners.
UniProt B0R470: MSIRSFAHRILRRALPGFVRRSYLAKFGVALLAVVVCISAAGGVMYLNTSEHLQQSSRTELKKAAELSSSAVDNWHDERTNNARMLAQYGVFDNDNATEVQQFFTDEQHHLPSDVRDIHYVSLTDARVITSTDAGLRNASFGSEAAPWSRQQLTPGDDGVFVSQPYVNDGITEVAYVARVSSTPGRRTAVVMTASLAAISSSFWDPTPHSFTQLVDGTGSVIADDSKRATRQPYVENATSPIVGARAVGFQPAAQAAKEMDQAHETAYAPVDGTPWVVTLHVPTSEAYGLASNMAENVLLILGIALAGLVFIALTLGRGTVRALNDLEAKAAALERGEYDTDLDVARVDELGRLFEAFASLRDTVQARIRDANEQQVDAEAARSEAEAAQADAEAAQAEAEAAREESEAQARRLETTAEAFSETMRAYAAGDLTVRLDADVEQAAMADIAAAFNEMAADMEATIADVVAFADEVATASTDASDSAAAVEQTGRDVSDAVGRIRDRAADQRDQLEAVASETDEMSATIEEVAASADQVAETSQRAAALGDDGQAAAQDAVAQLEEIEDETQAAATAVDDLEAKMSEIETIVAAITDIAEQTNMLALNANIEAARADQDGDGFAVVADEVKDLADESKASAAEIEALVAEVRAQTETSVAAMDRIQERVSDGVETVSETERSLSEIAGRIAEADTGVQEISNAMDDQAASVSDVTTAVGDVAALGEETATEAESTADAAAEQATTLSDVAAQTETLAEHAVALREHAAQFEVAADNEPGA

No constants are given. Whether binding was seen depends on the method and setting. Binding seen in cells or lysates may run through a third protein. Here binding means that the protein was enriched with, or labelled near, the bait; the list need not be complete. For some of these results: No binding means not detected with the bait.

Assay [1] deals with T1, CheA (Halobacterium salinarum R1 (DSM 671)) (UniProt B0R4J9).
T1 sequence: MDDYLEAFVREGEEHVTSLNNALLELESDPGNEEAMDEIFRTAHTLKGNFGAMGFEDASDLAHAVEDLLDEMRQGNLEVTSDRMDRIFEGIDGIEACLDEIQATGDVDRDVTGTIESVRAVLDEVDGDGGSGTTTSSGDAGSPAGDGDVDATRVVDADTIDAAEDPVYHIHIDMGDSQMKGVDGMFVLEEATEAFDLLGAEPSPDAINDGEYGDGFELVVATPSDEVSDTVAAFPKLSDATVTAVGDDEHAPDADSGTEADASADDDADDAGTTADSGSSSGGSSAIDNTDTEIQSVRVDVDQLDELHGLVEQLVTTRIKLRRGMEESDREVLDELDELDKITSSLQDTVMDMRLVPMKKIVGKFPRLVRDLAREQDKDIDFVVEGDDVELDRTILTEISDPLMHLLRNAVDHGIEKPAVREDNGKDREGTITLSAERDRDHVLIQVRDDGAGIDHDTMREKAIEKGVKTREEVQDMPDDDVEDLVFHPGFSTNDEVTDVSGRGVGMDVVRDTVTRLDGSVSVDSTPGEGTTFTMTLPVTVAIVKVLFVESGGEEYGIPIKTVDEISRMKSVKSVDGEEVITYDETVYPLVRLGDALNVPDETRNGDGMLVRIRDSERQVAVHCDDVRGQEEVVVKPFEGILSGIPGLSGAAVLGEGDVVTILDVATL
The assay can be described thus: affinity purification with mass spectrometry; one-step bait fishing: lysates of the bait-CBD strain (13C6-leucine) and of the bait-control strain without CBD (12C6-leucine) mixed, one cellulose column, CFE buffer (3 M KCl, 1 M NaCl, 400 mM NH4Cl, 40 mM MgCl2, 10 mM Tris/HCl pH 7.5), washes with 0.5% NP40, room temperature; SILAC, association score > 7 counts as interaction.

Assay [2] addresses T2, CheW2 (Halobacterium salinarum R1 (DSM 671)) (UniProt Q9HQY8).
T2 sequence: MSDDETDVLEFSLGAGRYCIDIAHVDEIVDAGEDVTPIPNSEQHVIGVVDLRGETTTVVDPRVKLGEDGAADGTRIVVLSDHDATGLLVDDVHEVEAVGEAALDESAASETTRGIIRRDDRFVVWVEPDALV
The assay can be described thus: affinity purification with mass spectrometry; two-step bait fishing: bait-CBD bound to a cellulose column and stringently washed (CFE + 1% NP40 + 20% ethylene glycol), then incubated with lysate of wild type cells (12C6-leucine); plain CBD column with 13C6-leucine lysate as control; SILAC, association score > 7 counts as interaction; only the target purified.

The target in assay [3] is T3, CheY (Halobacterium salinarum R1 (DSM 671)) (UniProt B0R4K1).
T3 sequence: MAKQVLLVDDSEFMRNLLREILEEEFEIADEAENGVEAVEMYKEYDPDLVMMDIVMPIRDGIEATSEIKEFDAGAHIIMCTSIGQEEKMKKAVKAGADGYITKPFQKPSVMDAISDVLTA
Description: affinity purification with mass spectrometry; one-step and two-step bait fishing taken together (final data set; both methods applied to all baits); the place does not tell which of the two gave the result.

Assay [4] has as its target T4, CheW1 (Halobacterium salinarum R1 (DSM 671)) (UniProt Q9HQW5).
T4 sequence: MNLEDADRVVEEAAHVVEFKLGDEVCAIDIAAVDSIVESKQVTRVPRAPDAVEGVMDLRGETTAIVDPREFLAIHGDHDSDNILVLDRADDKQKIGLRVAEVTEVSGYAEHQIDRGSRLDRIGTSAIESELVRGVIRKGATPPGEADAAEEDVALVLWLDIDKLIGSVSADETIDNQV
Described as above.

Assay [5] deals with T4, CheW1 (Halobacterium salinarum R1 (DSM 671)). The assay can be described thus: affinity purification with mass spectrometry; comparative two-step bait fishing: CheW1 on one cellulose column with light (12C) lysate, CheW2 on a second column with heavy (13C) lysate, the second CheW as control instead of plain CBD; only the target purified.
Assay [6] concerns the target T2, CheW2 (Halobacterium salinarum R1 (DSM 671)). The description is as above.
Assay [7] concerns the target OE4643R (Halobacterium salinarum R1 (DSM 671)). The assay can be described thus: affinity purification with mass spectrometry; one-step and two-step bait fishing taken together (final data set; both methods applied to all baits); the place does not tell which of the two gave the result.
In assay [8] the target is CheD (Halobacterium salinarum R1 (DSM 671)). Described as above.

Take “Htr4 (from UniProt B0R470 1-778) (receptor)”: the binding entry in assay [1], in assay [2], in assay [3], in assay [4], in assay [5] and in assay [6] was “binds” throughout.

On to “OE4643R (Halobacterium salinarum R1 (DSM 671))”, for which the figures for the binding result in assay [1], in assay [3] and in assay [4] were “binds”, “no binding” and “no binding”, respectively.

With “PurNH (OE1620R) (Halobacterium salinarum R1 (DSM 671)) (enzyme)”, the binding entry in assay [1], in assay [3], in assay [4] and in assay [5] was “binds” in each case.

B1: CheF1 (protein, UniProt B0R4J3 1-290)
chain: MSESEYKIADGSGKFLQAVKDGRRMKDAQWSKGRILLSNKRIVLAGSEGKRNLPLSEVQGLSGRHDVNQTVAKVGNYVSIRMTNESVMLVSLGDNTETFESKLYGALLDQTELQVKHPAVEGGVVTDEQFERARIKVDESELSVAMSNGSFVSVELDDVGSAEAASLEVNGDTKPVLKVEHTVNRDTSVQTYFATDSHTASILESLLTKEAEKSQGSVELSETEKRVLMALYSGVSSFEIPDFLGMDVDEVESIFERLIEVDVLEEVRKRREVTMKTRGRNIASEAINEE
Take B1: in assay [3], the binding result was “binds”.

B2: BasT (receptor, UniProt B0R6I4 1-805)
chain: MSDIDRGLFERVLPARIRGSYAAKFNVLLLVVVIIVAAAGGYIHLQTQSTVGENTERRVSGIAEQQAATLHDWLTQKESTTTFLASNIGGDAVRTSDVKPQLERQLATLQQDVRAIHVVSTSQDTVVASTDDARSGTTLQAGDAPWLSTIEDGTTDVSVSDPYEVDDSPVVAMTAPTDKPGWVLVMTMSLAQHSQSFNSPIATGDVKVVNGDGVITLDNRNRALLEQYTDTAGNVPAAVATARSGQTVYNTEPERTGMDDGRYATAYTPVAGTDWVLTYHVPRGQAYALQSEVTQNLAGLVVVALVGLLLVGLTVGRRTSSALDELAGVAAAIADGDLDTTIPDTDRTDELGQLVGAFGEMQTYLTTAASQADALADQNFDADVLDEDLPGAFGASLSQMHTRLEALITDLDEAREDAEQTRKDAEEARAASERLNERLERRAAEYSDEMAAAAAGDLTRRLDEDVDSEPMQDIAEAFNDMMGDVEATLAQVRSIADAVDAASTDVSTSAAEIRSASDQVSESVQDISADADQQRDRLGTVGDEVTSLSATVEEIAASADDVAETVNQAATESERGQELGEDAVAELERIEATADSAVERVTALEEAVDAIGDVTGVITDIAEQTNMLALNANIEAARADKSGDGFAVVADEVKDLADEVKESATEIETLVDDVQADVADTVADMSELGDRVDAGSETIEAALAALDDIGDQVEAANGSVQSISDATDEQAASTEEVVTMIDEVTDLSDRTATESQQVSAAAEEQAASVSEVAGRADDLDDQVSTLNDLLDQFDARAASADTDEN
On to B2, for which the binding entry in assay [1] is recorded as “binds”; in assay [2], “binds”; in assay [7] it was “no binding”; in assay [3] it was “binds”; in assay [4], “binds”; in assay [8] it was “no binding”. For the same molecule, the binding result in assay [5] and in assay [6] was “binds” in each case.

B3: HtrI (receptor, UniProt B0R632 1-536)
chain: MTIAWARRRYGVKLGLGYIATAGLLVGVGVTTNDVPSTIVAGIAGLLTLGSINAAETVASIKEIAAQTERVANGNLEQEVTSTRTDEFGSLADSIEQMRQSLRGRLNEMERTRADLEETQAEAETAREEAEQAKQEAQAAEREARELAATYQDTAKRYGETMEAAATGDLTQRVDVDTDHEAMETVGTAFNQMMDDLQATVRTVTTVADEIEAKTERMSETSADIEASAGDTVEAVSKIESQANDQRTELDSAADDVQQVSASAEEIAATIDDLASRSEDVATASDAARDSSKSALDEMSSIETEVDDAVGQVEQLRDQVAEITDIVDVITDIGEQTNMLALNASIEAARAGGNADGDGFSVVADEVKDLAEETQDRANEIAAVVEKVTAQTEDVTASIQQTRTRVESGSETVESTLRDIRTIADSIAEVSNSIDEIQRTTSEQAETVQSTATSVERVAGLSDDTTALASDAESAVIGQRESAEEIAASLEQFQNTAVEQLQSRVASFTVATEDSETAGGSVEQPVMRAGADGGGA
For B3, the binding result in assay [1] is on record as “binds”; in assay [2], “binds”; in assay [7], “no binding”; in assay [3], “binds”; in assay [4] it was “binds”; in assay [8] it was “no binding”. In addition, the binding entry in assay [5] and in assay [6] was “binds” in each case.

B4: CheF2 (protein, UniProt B0R4J4 1-287)
chain: MSESAIADFVSSFIPDTATHVEPVRGRVVMSKRRIVLAADDEKTTIPLNGVFDVQHETAPGDLARFFEDTVTIAYEHDEDRHVAVIEGGGSTVDRFVTLVFKALVHGTTVYAKHPARRGGRITDQPFEKGNLALSPGDLTITGDADTTIDLSTVSHFERVDREVNGSNKQLLSVRHMGSTGPITTELALSSGRKMNLLGRYIRLQYTHLKQELADVTLTSEEIEALVAIYSSGPNASLAAVLGVDASRVTMLLNDLIEKELVTDDDGIALTSLGRAAVSEHIEDVNL
In the case of B4, the binding result in assay [3] is listed as “binds”.

B5: MpcT (receptor, UniProt B0R367 1-627)
chain: MNITQAYKRSLWWSMDMVGATGSVERKMLTAVGLQFLAAGGMAFLTVFTAGTVQLIGVGGMLALSVVAFYNTYLIAEADFVEPLVALEDAADDIAAGEFERADIPSSKRDDEIASLVASFDGMQSNLEVASRQADALARQAFDDPALDESVPGAFGESITEMADSLEAYTAELEDKTAELEHQQAELERQSEQLRALVDALSEATDAARAGDLTATVDAAALDVTDDHRAAVEDFNQLLETLADTISDIQSFSDAVLAVSRTTDERVDAVADRSAAVSESVTEIADGANQQTNQLNNIAAEMDTVSATVEEIAASANDVAKTAQAAADRGEDGRGEVEETIEALRALREQSQAVAETVESLAAEVERIDGITALIEDIAEETNMLALNASIEAARTGSDGDGFAVVADEVKDLAEETREQAADISEIVDAVTEKAEDASIAIGEVDAEVERKITKAEGVLRDFEAIVDEVANVNHAVQEISDATDQGAQSVTDVVGMVEEVASVSEETAAESDTVADNAAEQTDATDEVADQMDELAEQTAALAGMLDDFTVPADAGTADQSVADDSPTAQPPAADDEPAAAVVDQPQPASDAEDEEGVPDSGGESVAVSDGGWADDRSSFTWADSQ
On to B5, for which the binding entry in assay [1] is given as “binds”; in assay [7] it was “no binding”; in assay [3], “binds”; in assay [4], “binds”; in assay [8] it was “no binding”; in assay [5] it was “binds”.
